Test [1] concerns the target Mitochondrial E3 ubiquitin ligase 1 (MUL1) (human (endogenous in T24 and UM-UC-3)) (UniProt Q969V5). Put plainly: affinity purification with mass spectrometry; co-IP of MUL1 from T24 and UM-UC-3 cells followed by MS; proteins overlapping in both cell lines.
The target of test [2] is GFP-tagged wild-type HSPA9 (OE-HSPA9) (human) (UniProt P38646). As to the kind of experiment: affinity purification with mass spectrometry; co-IP and MS (qualitative and comparative quantitative proteomics) from mitochondria-free cell lysates of OE-HSPA9 and OE-HSPA9-K612R cells.

Sequences of proteins named here, by UniProt entry; tags and fusion partners are left off. Residues count along the entry.
UniProt Q969V5: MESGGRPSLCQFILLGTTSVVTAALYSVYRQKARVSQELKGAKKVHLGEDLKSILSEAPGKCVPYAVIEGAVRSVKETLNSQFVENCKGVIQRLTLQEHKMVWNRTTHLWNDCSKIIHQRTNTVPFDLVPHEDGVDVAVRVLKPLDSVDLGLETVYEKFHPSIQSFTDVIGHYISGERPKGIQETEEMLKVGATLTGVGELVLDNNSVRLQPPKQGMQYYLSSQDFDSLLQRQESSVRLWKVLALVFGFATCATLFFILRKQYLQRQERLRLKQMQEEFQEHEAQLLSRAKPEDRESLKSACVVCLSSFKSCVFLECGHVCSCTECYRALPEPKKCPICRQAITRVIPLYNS
UniProt P38646, residues 47-679: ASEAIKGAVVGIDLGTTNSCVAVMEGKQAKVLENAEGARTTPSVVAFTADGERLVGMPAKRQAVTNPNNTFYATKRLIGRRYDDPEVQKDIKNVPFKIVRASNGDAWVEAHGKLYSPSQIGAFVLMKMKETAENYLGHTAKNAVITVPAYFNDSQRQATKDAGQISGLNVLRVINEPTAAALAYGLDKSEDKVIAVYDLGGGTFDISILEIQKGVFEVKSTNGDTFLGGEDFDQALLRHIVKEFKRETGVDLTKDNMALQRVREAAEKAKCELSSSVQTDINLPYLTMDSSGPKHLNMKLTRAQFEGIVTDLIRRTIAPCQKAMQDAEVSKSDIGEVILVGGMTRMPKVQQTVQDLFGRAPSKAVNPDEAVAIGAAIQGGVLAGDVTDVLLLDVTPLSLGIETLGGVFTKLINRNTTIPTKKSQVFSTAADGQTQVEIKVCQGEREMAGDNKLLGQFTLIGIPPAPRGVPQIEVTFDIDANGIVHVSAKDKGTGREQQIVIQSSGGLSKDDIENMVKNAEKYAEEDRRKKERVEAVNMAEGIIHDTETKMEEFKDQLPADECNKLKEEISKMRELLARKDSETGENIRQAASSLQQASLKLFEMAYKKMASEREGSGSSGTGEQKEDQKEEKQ
UniProt Q15022: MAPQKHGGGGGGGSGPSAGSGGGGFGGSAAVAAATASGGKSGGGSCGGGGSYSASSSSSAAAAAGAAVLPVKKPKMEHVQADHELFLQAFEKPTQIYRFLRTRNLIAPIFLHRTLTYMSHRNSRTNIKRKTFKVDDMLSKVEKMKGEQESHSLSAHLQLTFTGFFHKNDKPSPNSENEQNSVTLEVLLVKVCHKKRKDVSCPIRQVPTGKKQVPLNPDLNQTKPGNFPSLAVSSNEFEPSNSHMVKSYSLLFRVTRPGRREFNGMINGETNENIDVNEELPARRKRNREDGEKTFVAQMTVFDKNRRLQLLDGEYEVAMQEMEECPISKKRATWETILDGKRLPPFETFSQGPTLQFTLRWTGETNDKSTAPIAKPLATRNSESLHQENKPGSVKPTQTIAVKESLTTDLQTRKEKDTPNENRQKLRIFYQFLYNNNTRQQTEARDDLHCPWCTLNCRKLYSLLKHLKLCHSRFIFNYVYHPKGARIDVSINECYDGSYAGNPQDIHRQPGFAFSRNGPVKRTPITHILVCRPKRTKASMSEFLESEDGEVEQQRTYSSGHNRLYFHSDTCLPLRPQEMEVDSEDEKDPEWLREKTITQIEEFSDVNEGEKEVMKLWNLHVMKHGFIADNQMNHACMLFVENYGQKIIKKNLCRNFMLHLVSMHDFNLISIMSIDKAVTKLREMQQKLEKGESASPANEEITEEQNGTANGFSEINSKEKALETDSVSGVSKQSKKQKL

Results are given in words; binding and its absence hold for the method and conditions named. In cells and extracts the contact can be indirect. These calls come from enrichment with a bait or labelling near it, and not all partners need be listed.

Take HSPA9 (from UniProt P38646 47-679): the binding entry in test [1] was “binds”.

For SUZ12 (from UniProt Q15022 1-739), in test [2], the binding result is listed as “binds”.

For the origin of these results see article PMC11302872.
